In PMC8214628 one finds binding data, which are given here for one substance.

Chains of the proteins cited; added tags and fusions are not shown.
UniProt P42229: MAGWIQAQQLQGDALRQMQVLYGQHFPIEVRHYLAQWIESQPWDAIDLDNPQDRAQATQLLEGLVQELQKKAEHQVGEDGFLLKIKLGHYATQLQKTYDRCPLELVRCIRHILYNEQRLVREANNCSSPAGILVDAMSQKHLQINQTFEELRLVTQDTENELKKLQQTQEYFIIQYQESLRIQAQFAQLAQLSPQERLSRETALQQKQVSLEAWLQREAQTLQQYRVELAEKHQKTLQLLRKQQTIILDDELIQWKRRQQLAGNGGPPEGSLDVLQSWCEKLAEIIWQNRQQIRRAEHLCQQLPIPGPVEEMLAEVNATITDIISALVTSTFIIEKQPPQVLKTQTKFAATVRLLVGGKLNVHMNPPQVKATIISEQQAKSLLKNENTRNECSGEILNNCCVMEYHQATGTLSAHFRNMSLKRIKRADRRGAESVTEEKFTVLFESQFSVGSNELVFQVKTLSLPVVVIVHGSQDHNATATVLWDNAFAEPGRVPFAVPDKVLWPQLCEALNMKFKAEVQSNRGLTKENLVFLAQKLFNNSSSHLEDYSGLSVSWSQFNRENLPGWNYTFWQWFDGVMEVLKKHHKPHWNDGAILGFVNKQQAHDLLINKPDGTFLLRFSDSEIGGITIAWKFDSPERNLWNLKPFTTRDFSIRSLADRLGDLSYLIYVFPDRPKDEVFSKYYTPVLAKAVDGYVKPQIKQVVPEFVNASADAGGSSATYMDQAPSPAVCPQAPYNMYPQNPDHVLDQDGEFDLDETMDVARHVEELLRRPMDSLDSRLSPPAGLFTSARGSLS
UniProt P51692: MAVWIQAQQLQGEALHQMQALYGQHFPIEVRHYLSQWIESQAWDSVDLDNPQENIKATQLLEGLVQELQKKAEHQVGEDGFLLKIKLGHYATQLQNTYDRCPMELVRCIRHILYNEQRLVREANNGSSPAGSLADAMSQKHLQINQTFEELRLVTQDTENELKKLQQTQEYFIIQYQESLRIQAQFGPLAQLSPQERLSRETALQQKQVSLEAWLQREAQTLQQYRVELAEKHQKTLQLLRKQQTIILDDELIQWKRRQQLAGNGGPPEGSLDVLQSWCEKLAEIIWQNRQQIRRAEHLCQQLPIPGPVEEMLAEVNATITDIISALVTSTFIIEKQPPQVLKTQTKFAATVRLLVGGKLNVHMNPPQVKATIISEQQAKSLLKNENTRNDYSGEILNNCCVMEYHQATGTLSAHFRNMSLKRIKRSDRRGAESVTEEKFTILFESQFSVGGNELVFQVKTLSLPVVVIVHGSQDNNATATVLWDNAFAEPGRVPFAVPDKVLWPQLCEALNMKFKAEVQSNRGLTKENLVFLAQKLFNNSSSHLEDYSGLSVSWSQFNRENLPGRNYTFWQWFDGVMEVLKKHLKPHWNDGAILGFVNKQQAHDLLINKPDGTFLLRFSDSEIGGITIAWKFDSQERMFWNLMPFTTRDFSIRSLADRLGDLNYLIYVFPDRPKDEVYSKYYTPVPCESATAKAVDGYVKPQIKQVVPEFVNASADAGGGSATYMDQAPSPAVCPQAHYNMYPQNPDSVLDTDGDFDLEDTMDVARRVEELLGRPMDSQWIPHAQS

The target in the experiment is FLAG-HA-STAT5A (UniProt P42229). Briefly: affinity purification with mass spectrometry; tandem affinity purification (TAP-MS) of STAT5A complexes from 293T cells stably expressing FLAG-HA-STAT5A; SDS-PAGE, mass spectrometry.

Results are given in words; binding and its absence hold for the method and conditions named. Binding seen in cells or lysates may run through a third protein. Here binding means that the protein was enriched with, or labelled near, the bait; the list need not be complete.

On to “endogenous STAT5B (from UniProt P51692 1-787)”, for which the binding entry was “binds”.
